Article PMC4041440, “Structural and biophysical characterization of Staphylococcus aureus SaMazF shows conservation of functional dynamics” (Nucleic Acids Research, 2014)
No constants are given. Whether binding was seen depends on the method and setting. For part of these data: Binding seen in cells or lysates may run through a third protein. Some results given as binding are weak or reduced against the parent protein; the word gives no strength. Sequences can lack the tags named with a protein.

Chains of the proteins cited; added tags and fusions are not shown. Lines headed by an entry give the natural chain unless they say otherwise; changes in a name come on top.
UniProt A7X4P6: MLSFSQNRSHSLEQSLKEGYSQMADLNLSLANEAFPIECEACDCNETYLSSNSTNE

Key:
[1] = molecular target: T1, Staphylococcus aureus MazF toxin (SaMazF), N-terminally His-tagged (Staphylococcus aureus) (UniProt Q7A4G9); assay: NMR titration; 3.5 mM SaMazE23-56 titrated into 0.5 mM 13C15N-labelled SaMazF, 20 mM phosphate pH 6.6, 308 K, 15N-HSQC; analysed at the 1:1 ratio; both purified
T1 sequence: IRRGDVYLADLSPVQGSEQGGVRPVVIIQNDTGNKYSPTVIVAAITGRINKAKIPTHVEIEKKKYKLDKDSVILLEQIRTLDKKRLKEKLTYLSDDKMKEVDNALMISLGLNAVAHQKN

[2] = molecular target: T1, Staphylococcus aureus MazF toxin (SaMazF), N-terminally His-tagged (Staphylococcus aureus); assay: CD spectroscopy; data not shown; SaMazE23-56 with SaMazF; both purified
[3] = molecular target: T1, Staphylococcus aureus MazF toxin (SaMazF), N-terminally His-tagged (Staphylococcus aureus); assay: pull-down; Ni-NTA column traps His-SaMazF with co-expressed SaMazE from E. coli lysate; wash with 20 mM Tris-HCl pH 7.0, 300 mM NaCl, 20 mM imidazole; SaMazE then eluted with a 0-3 M GdHCl gradient

Q: Which binding [1] does the source give for “SaMazE-derived C-terminal peptide, residues 23-56 (SaMazE23-56) (from UniProt A7X4P6 23-56)” here?
A: binds

Q: And the binding [2]?
A: binds

Q: “Staphylococcus aureus MazE antitoxin (SaMazE) (from UniProt A7X4P6 1-56)” was tested. Which binding [3] did it give?
A: binds
